Test results taken from PubChem BioAssay AID504834 (National Center for Advancing Translational Sciences (NCATS), 2011).
Several values for one entry are separate records, joined by “and”; a condition that tells them apart may be missing. Equal values may be shown once. Hit rate of the full screen: of about 320,000 compounds, about 22,000 (6.9%) were called active. This list was built around the results that the source calls inconclusive (neither active nor inactive); the mix of calls is not that of the screen. Calls follow the shape of the dose curve; as a rule, active = well fitted inhibition curve with a large enough effect; inconclusive = small, poorly fitted or top-dose-only effect, or another doubt; inactive = no such curve, though single readings can be large or run the other way. Potencies of inconclusive entries are doubtful fits and often do not repeat.

Test: Primary qHTS for delayed death inhibitors of the malarial parasite plastid, 96 hour incubation
Conditions: P. falciparum luciferase reporter growth; series mostly up to 28.7 µM; activity change, negative = inhibition: at the top concentration
Summary of the method: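 P. falciparum expressing integrated firefly luciferase grown in erythrocytes (2% hematocrit, 0.05% parasitemia final) with compounds for 96 hours at 37 C, 5% CO2. Growth inhibition read as loss of luminescence after adding luciferase detection reagent.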
% is scaled to controls: 0 for no effect and ±100 for the full control effect; potency is read from the fitted curve at half-maximal effect.

SMILES	Potency	activity change, negative = inhibition
Cc1ccc(N=Cc2ccc[nH]2)c(O)c1	inconclusive: 18.5 µM [inhibitor, single point]	
COc1ccc(/C=N\NC(=O)c2cc(O)c(O)c(O)c2)cc1COc1ccc(C(=O)OCC(C)C)cc1	inconclusive: 16.5 µM [inhibitor, single point]	
CCOC(=O)CSc1nnc(CSc2nc(N)c3c(C)c(C)sc3n2)n1-c1ccccc1	inconclusive: 18.5 µM [inhibitor, single point]	
CC(C)(C)OC(=O)N1CCC2(CC1)Oc1ccc(F)cc1C(=O)C21CC(c2cccnc2)=NO1 (configuration not stated)	inconclusive: 10.4 µM [inhibitor, single point]	
CN1CCc2c(sc3nc(SCC(N)=O)n(-c4ccc(Cl)cc4)c(=O)c23)C1	inconclusive: 1.04 µM [inhibitor, full curve]	
C/C(=N\Nc1ccc(Cl)c(C(=O)O)c1)c1cccc([N+](=O)[O-])c1		inactive: 90.1%
CCCCCCSc1ccc([C@H]2N[C@@](Cc3ccccc3)(C(=O)OC)[C@H]3C(=O)N(C)C(=O)[C@@H]23)cc1	inconclusive: 0.185 µM [inhibitor, full curve, poor fit]	
O=C(/C=C/c1ccccc1)Nc1sc2c(c1C(=O)O)CCC2		inactive: 71.8%
CC(C)c1csc(CN2CCC(n3nccc3NC(=O)Cc3ccccc3)CC2)n1	inconclusive: 18.5 µM [inhibitor, single point]	
COc1ccccc1N1CCN(CC(=O)Nc2ccccc2C(=O)NCCc2ccccc2)CC1	inconclusive: 18.5 µM [inhibitor, single point]	
COc1cc(NC(=O)CSc2ncccc2C(=O)OC(C)C)cc(OC)c1		inactive: -22%
COC(=O)c1ccc(C23CC4(C2)[C@H](CN(C)[C@@H]4c2ccccc2)C3c2ccccc2)cc1 (some centres not stated)	inconclusive: 18.5 µM [inhibitor, single point]	
CCOC(=O)Nc1nnc(/C=C/c2ccc(OC)cc2)s1		inactive: 0.527%
O=C(NCc1ccccc1CN1CCCC1)c1ccc(Cl)c(N2CCCC2=O)c1	inconclusive: 18.5 µM [inhibitor, single point]	
CCCc1nc(N2CCOCC2)c(C#N)c2c1CCCC2	inconclusive: 18.5 µM [inhibitor, single point]	
CC(C)(O)C#Cc1ccc(CN2CCN(Cc3ccccc3)C(CCO)C2)s1 (configuration not stated)	inconclusive: 18.5 µM [inhibitor, single point]	
Cc1cccc(-n2ncc3c(NC4CCCCC4)ncnc32)c1		inactive: -10.7%
Cc1nn(C)cc1[C@@H]1C[C@H]2CN(Cc3cccc(Cl)c3)C(=O)[C@]23CCCN13	inconclusive: 11.7 µM [inhibitor, single point]	
COc1cc2c(cc1OC)-c1cc(NC3CCCCC3)nc(=O)n1CC2	inconclusive: 18.5 µM [inhibitor, single point]	
COc1ccc(COC(=O)c2sc3nc4n(c(=O)c3c2C)CCC4)cc1	inconclusive: 8.28 µM [inhibitor, partial curve]	
CSCC[C@H](NC(=O)N1CCn2c1nc1ccccc12)C(=O)NCc1ccc2c(c1)OCO2	inconclusive: 18.5 µM [inhibitor, single point]	

SMILES	Potency	activity change, negative = inhibition
CCOc1ccc(N(C)S(=O)(=O)c2ccc(C)c(C(=O)Nc3nnc(C4CC4)s3)c2)cc1	inconclusive: 2.62 µM [inhibitor, full curve]	
CC1CC(C)CN(S(=O)(=O)N2CCC(C(=O)NCCc3ccccc3)CC2)C1 (configuration not stated)		inactive: -13.3%
O=C(Nc1ccc(N2CCOCC2)cc1)c1cccnc1	inconclusive: 14.7 µM [inhibitor, single point]	
CCCCCc1nc2c(c(=O)c3ccccc3n2C)c(=O)n1Cc1ccc(OC)cc1	inconclusive: 2.08 µM [inhibitor, full curve, poor fit]	
CC(C)(C)CC(=O)O/N=C(\N)c1ccccn1	active: 13.1 µM	
C=CCN=C1N[C@@H](c2ccccc2)C(C(=O)OC)=C(C)N1CC	inconclusive: 20.8 µM [inhibitor, partial curve, poor fit]	
Cc1cccn2c(=O)c3cc(C(=O)NC4CCCC4)c(=N)n(C4CCCCC4)c3nc12	inconclusive: 1.17 µM [inhibitor, partial curve, poor fit]	
COCCSc1ccccc1C(=O)Nc1ccc(Br)cc1		inactive: -4.02%
Cc1ccccc1NC(=O)Cc1nc(-c2c[nH]c(C(=O)N3CCCC3)c2)cs1	active: 10.4 µM	
COc1ccc(-c2nc(CS(=O)CC(=O)N3CCc4ccccc4C3)c(C)o2)cc1 (configuration not stated)	inconclusive: 11.7 µM [inhibitor, single point]	
CCCS(=O)(=O)c1c(S(=O)(=O)CCC)c2cnccn2c1C(=O)c1ccc(Cl)cc1	inconclusive: 11.7 µM [inhibitor, single point]	
CCCCn1c(N)c(N(CCOC)C(=O)c2ccc(S(=O)(=O)N3CCCCCC3)cc2)c(=O)[nH]c1=O		inactive: -8.93%
Cc1ccc(OCc2cc(C(=O)N3CCC(Oc4cccnc4)CC3)no2)cc1C	inconclusive: 4.65 µM [inhibitor, partial curve]	
CC(C)(C)c1cc(O)ccc1O	active: 6.75 µM and active: 10.7 µM	
CCOC(=O)C1=C(C)NC(=O)NC1c1cccc(OC)c1OCc1ccccc1Cl (configuration not stated)		inactive: 5.24%
CN(C)C(=S)Nc1ccc2ccccc2c1		inactive: 21.5%
Cc1ccc(-c2nnc(Nc3ccc(CC(N)=O)cc3)c3ccccc23)cc1S(=O)(=O)NCC1CCCO1 (configuration not stated)	inconclusive: 0.0738 µM [inhibitor, full curve, poor fit]	
Oc1ccc(Nc2nc(-c3ccccc3O)nc3ccccc23)cc1	inconclusive: 18.5 µM [inhibitor, single point]	
CCOc1ccc(/C=N/NC2=NCCCCC2)cc1		inactive: 17.3%
Cc1cc(C)n(-c2ccc(C(=O)N3CCN(c4ccccn4)CC3)cc2)n1	inconclusive: 14.7 µM [inhibitor, partial curve, poor fit]	
Cc1cc(C)c(C#N)c(SCC(=O)c2cc(C)n(CCc3ccccc3)c2C)n1	inconclusive: 16.5 µM [inhibitor, single point]	

2 of the compounds above, with bars between the fields.
SMILES | Potency | activity change, negative = inhibition
CCOC(=O)Nc1nnc(/C=C/c2ccc(OC)cc2)s1 |  | inactive: 0.527%
CC(C)(C)CC(=O)O/N=C(\N)c1ccccn1 | active: 13.1 µM | 
